Experimental data published in the supplement of paper PMC4604168 (melanoma cell lines).
Some of the results follow. Single values are uncertain, as repeats are few or missing.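 Imaging used 1,536-well plates; nuclei positive for cleaved PARP by antibody were divided by total DNA-stained nuclei to yield the apoptosis fraction. Doses for screening kept most cells viable, and cell lines differ markedly in resting and induced cleaved-PARP levels.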

Columns and labels:
Test in all cases: cleaved PARP positive nuclei fraction relative to DMSO control; melanoma cells; higher = more apoptosis
Conditions in all cases: library dose: low library concentration; 72 h
[1] = system: COLO792
[2] = system: COLO800
[3] = system: COLO829
[4] = system: G361
[5] = system: IPC-298
[6] = system: IST-MEL1
[7] = system: LB2518-MEL
[8] = system: LOXIMVI
[9] = system: MZ2-MEL
[10] = system: MeWo
[11] = system: RPMI7951
[12] = system: RVH-421
[13] = system: SkMel28
[14] = system: SkMel2
[15] = system: SkMel30
[16] = system: SkMel5
[17] = system: UACC257
[18] = system: UACC62
[19] = system: MEL-HO

Compound	cleaved PARP positive nuclei fraction [1]	cleaved PARP positive nuclei fraction [2]	cleaved PARP positive nuclei fraction [3]	cleaved PARP positive nuclei fraction [4]	cleaved PARP positive nuclei fraction [5]	cleaved PARP positive nuclei fraction [6]	cleaved PARP positive nuclei fraction [7]	cleaved PARP positive nuclei fraction [8]	cleaved PARP positive nuclei fraction [9]	cleaved PARP positive nuclei fraction [10]	cleaved PARP positive nuclei fraction [11]	cleaved PARP positive nuclei fraction [12]	cleaved PARP positive nuclei fraction [13]	cleaved PARP positive nuclei fraction [14]	cleaved PARP positive nuclei fraction [15]	cleaved PARP positive nuclei fraction [16]	cleaved PARP positive nuclei fraction [17]	cleaved PARP positive nuclei fraction [18]	cleaved PARP positive nuclei fraction [19]
COc1cc([C@@H]2c3cc4c(cc3[C@@H](O[C@@H]3O[C@@H]5CO[C@@H](C)O[C@H]5[C@H](O)[C@H]3O)[C@H]3COC(=O)[C@H]23)OCO4)cc(OC)c1O [etoposide] + c1cc(-c2cnn3cc(-c4ccc(OCCN5CCCCC5)cc4)cnc23)ccn1 [Dorsomorphin] (first compound 0.02 µM, partner dose 0.4 µM)	154%	106%	110%	121%	104%	68.7%	69.7%	134%	62.7%	223%	43.4%	26.4%	147%	61.8%	77.4%	93.1%	160%	60.2%	–
CC[C@]1(O)C[C@H]2CN(CCc3c([nH]c4ccccc34)[C@@](C(=O)OC)(c3cc4c(cc3OC)N(C=O)[C@H]3[C@@](O)(C(=O)OC)[C@H](OC(C)=O)[C@]5(CC)C=CCN6CC[C@]43[C@@H]65)C2)C1 [vincristine] + CCCCCCCCCCCC1=C(O)C(=O)C=C(O)C1=O [Embelin] (first compound 0.0001 µM, partner dose 1.2 µM)	117%	164%	170%	102%	91.5%	76.5%	70%	136%	77.5%	136%	85.6%	35.4%	191%	173%	301%	193%	288%	476%	–
N#CC[C@H](C1CCCC1)n1cc(-c2ncnc3[nH]ccc23)cn1 [ruxolitinib] + Cc1cc(N2CCOCC2)cc2[nH]c(-c3c(NC[C@@H](O)c4cccc(Cl)c4)cc[nH]c3=O)nc12 [BMS536924] (first compound 1 µM, partner dose 0.2 µM)	66.2%	57.1%	82.2%	74.7%	43.1%	59.7%	76.8%	87.7%	297%	735%	80.7%	46.2%	–	56.9%	132%	140%	107%	140%	68.6%
COc1cc([C@@H]2c3cc4c(cc3[C@@H](O[C@@H]3O[C@@H]5CO[C@@H](C)O[C@H]5[C@H](O)[C@H]3O)[C@H]3COC(=O)[C@H]23)OCO4)cc(OC)c1O [etoposide] + COc1cc2c(Oc3ccc4[nH]c(C)cc4c3F)ncnc2cc1OCCCN1CCCC1 [cediranib] (first compound 0.02 µM, partner dose 0.4 µM)	81.9%	117%	70.6%	121%	193%	63.1%	66.8%	238%	111%	36.7%	85.5%	79.7%	60.4%	–	125%	89.7%	94.5%	95%	73.9%
O=C(/C=C/c1cccnc1)NCCCCC1CCN(C(=O)c2ccccc2)CC1 + c1cc(-c2cnn3cc(-c4ccc(OCCN5CCCCC5)cc4)cnc23)ccn1 [Dorsomorphin] (first compound 0.01 µM, partner dose 0.4 µM)	446%	193%	68%	1880%	212%	76.8%	212%	105%	443%	59.3%	127%	118%	123%	533%	76.3%	156%	67.8%	152%	–
O=C(/C=C/c1cccnc1)NCCCCC1CCN(C(=O)c2ccccc2)CC1 + Cc1cc([N+](=O)[O-])ccc1NS(=O)(=O)c1cc(Cl)ccc1Cl [FH535] (first compound 0.01 µM, partner dose 1 µM)	418%	158%	403%	2900%	118%	161%	68.4%	90.4%	366%	108%	183%	126%	32%	532%	167%	68.6%	77.3%	120%	–
CC[C@]1(O)C[C@H]2CN(CCc3c([nH]c4ccccc34)[C@@](C(=O)OC)(c3cc4c(cc3OC)N(C=O)[C@H]3[C@@](O)(C(=O)OC)[C@H](OC(C)=O)[C@]5(CC)C=CCN6CC[C@]43[C@@H]65)C2)C1 [vincristine] + CN(C)S(=O)(=O)c1ccc2c(c1)/C(=C/c1cc3c([nH]1)CCCC3)C(=O)N2 [SU6656] (first compound 0.0001 µM, partner dose 0.4 µM)	82.1%	104%	138%	142%	92.8%	102%	88.4%	70%	116%	60.7%	68.8%	47.2%	260%	131%	128%	226%	1250%	305%	61.5%
COc1cc([C@@H]2c3cc4c(cc3[C@@H](O[C@@H]3O[C@@H]5CO[C@@H](C)O[C@H]5[C@H](O)[C@H]3O)[C@H]3COC(=O)[C@H]23)OCO4)cc(OC)c1O [etoposide] + O=C(O)C(=O)Nc1sc2c(c1C(=O)O)CCNC2 [TCS401] (first compound 0.02 µM, partner dose 1.66667 µM)	102%	94.5%	149%	125%	49.6%	27.9%	70.8%	49.3%	106%	71.8%	118%	14.5%	10.2%	54.6%	33.8%	38.4%	13.6%	117%	–
CCCCCCCCCCCCCCCCCCOP(=O)([O-])OC1CC[N+](C)(C)CC1 [Perifosine] + COc1cc(Nc2ncc(F)c(Nc3ccc4c(n3)NC(=O)C(C)(C)O4)n2)cc(OC)c1OC [Tamatinib] (first compound 0.4 µM, partner dose 0.4 µM)	170%	60.1%	89.7%	132%	185%	97.9%	143%	149%	241%	139%	369%	135%	81%	154%	141%	71.9%	208%	101%	160%
CCCCCCCCCCCCCCCCCCOP(=O)([O-])OC1CC[N+](C)(C)CC1 [Perifosine] + c1cc(-c2cnn3cc(-c4ccc(OCCN5CCCCC5)cc4)cnc23)ccn1 [Dorsomorphin] (first compound 0.4 µM, partner dose 0.4 µM)	58.4%	86.6%	106%	279%	88.7%	152%	83.3%	203%	63.2%	69.9%	89.3%	230%	67.9%	57%	45.3%	285%	21.7%	68.9%	–
Cc1cn(-c2cc(NC(=O)c3ccc(C)c(Nc4nccc(-c5cccnc5)n4)c3)cc(C(F)(F)F)c2)cn1 [nilotinib] + Cc1ccc(NC(=O)c2cccc(N(C)C)c2)cc1NC(=O)c1ccc(O)cc1 [ZM336372] (first compound 0.2 µM, partner dose 2 µM)	73.1%	15.2%	121%	73.5%	103%	101%	93.1%	59.1%	73.8%	31.5%	35.6%	262%	139%	78.1%	78.6%	40.3%	140%	88%	127%
Cc1cc(Nc2cc(N3CCN(C)CC3)nc(Sc3ccc(NC(=O)C4CC4)cc3)n2)n[nH]1 [Tozasertib] + COC(=O)c1sccc1S(=O)(=O)Nc1ccc(Nc2ccccc2)cc1OC [GSK0660] (first compound 0.006 µM, partner dose 1 µM)	113%	106%	159%	148%	142%	68.1%	140%	146%	137%	158%	102%	126%	120%	46.4%	41.6%	74.5%	189%	122%	–
O=C(/C=C/c1cccnc1)NCCCCC1CCN(C(=O)c2ccccc2)CC1 + Oc1nc(-c2ccc(C(F)(F)F)cc2)nc2c1CSCC2 [XAV939] (first compound 0.01 µM, partner dose 2 µM)	231%	245%	74.1%	1260%	235%	88.9%	48.7%	45.5%	99.5%	162%	231%	67.9%	133%	126%	79.9%	211%	184%	131%	–
O=C(Nc1cc(C(F)(F)F)cc(C(F)(F)F)c1)c1cc(Cl)ccc1O + CN(NC(=O)CC(=O)NN(C)C(=S)c1ccccc1)C(=S)c1ccccc1 [STA4783] (first compound 0.016 µM, partner dose 0.006 µM)	118%	197%	242%	133%	94.4%	140%	115%	143%	24.1%	49.3%	33.9%	39.9%	60.3%	53.7%	77.9%	34.7%	96%	97.5%	101%
O=C(/C=C/c1cccnc1)NCCCCC1CCN(C(=O)c2ccccc2)CC1 + CO[C@@H]1[C@H](N(C)C(=O)c2ccccc2)C[C@H]2O[C@]1(C)n1c3ccccc3c3c4c(c5c6ccccc6n2c5c31)C(=O)NC4 [Midostaurin] (first compound 0.01 µM, partner dose 0.08 µM)	808%	72.8%	397%	3000%	516%	110%	597%	139%	1060%	48.1%	56.3%	198%	35.9%	463%	71.5%	76.4%	39.5%	112%	486%
Cc1cc(Nc2cc(N3CCN(C)CC3)nc(Sc3ccc(NC(=O)C4CC4)cc3)n2)n[nH]1 [Tozasertib] + Oc1nc(-c2ccc(C(F)(F)F)cc2)nc2c1CSCC2 [XAV939] (first compound 0.006 µM, partner dose 2 µM)	165%	138%	87.8%	123%	31.3%	112%	53.4%	124%	98.9%	89.6%	231%	62.6%	115%	130%	39.2%	97.5%	167%	171%	–
N#CC[C@H](C1CCCC1)n1cc(-c2ncnc3[nH]ccc23)cn1 [ruxolitinib] + O=C(Nc1ccccc1)c1cc([N+](=O)[O-])ccc1Cl [GW9662] (first compound 1 µM, partner dose 2 µM)	134%	95.2%	116%	114%	191%	64.1%	60.4%	50.1%	128%	197%	151%	108%	145%	72.7%	178%	84.2%	25.6%	117%	–

Part of the list above, showing only cleaved PARP positive nuclei fraction [4] and cleaved PARP positive nuclei fraction [17].
Compound,cleaved PARP positive nuclei fraction [4],cleaved PARP positive nuclei fraction [17]
"CC[C@]1(O)C[C@H]2CN(CCc3c([nH]c4ccccc34)[C@@](C(=O)OC)(c3cc4c(cc3OC)N(C=O)[C@H]3[C@@](O)(C(=O)OC)[C@H](OC(C)=O)[C@]5(CC)C=CCN6CC[C@]43[C@@H]65)C2)C1 [vincristine] + CN(C)S(=O)(=O)c1ccc2c(c1)/C(=C/c1cc3c([nH]1)CCCC3)C(=O)N2 [SU6656] (first compound 0.0001 µM, partner dose 0.4 µM)",142%,1250%
"N#CC[C@H](C1CCCC1)n1cc(-c2ncnc3[nH]ccc23)cn1 [ruxolitinib] + O=C(Nc1ccccc1)c1cc([N+](=O)[O-])ccc1Cl [GW9662] (first compound 1 µM, partner dose 2 µM)",114%,25.6%
